Measured values from US6225284A, “Somatostatin peptides” (Novartis AG, priority 1995, dated 2001).
For part of these data: Part of at least one peptide drawing is inferred or uncertain, most often the ends. For part of these data: For at least one compound, name, drawing or mass did not settle the structure. Numbered stars: 1 amine (or outer) side, 2 acyl side, 3 side chain; on linkers, the order of the positions; unused ones are H or OH. Square brackets hold non-standard residues; d marks the D form. Side chains are listed from the residue outwards. Peptide text beside a SMILES is read from it. * marks the point of attachment. DOTA = O=C(O)CN1CCN(CC(=O)O)CCN(CC(=O)*)CCN(CC(=O)O)CC1; Ethylenediamine = C(CN[*:2])N[*:1]; Hyp = O=C(O)[C@@H]1C[C@@H](O)CN1; Phg = N[C@H](C(=O)O)c1ccccc1; CO = O=C([*:1])[*:2]; Bn = c1ccc(C*)cc1

Protein sequences, listed by entry. Tags and fused reporters are not part of them. Lines headed by an entry give the natural chain unless they say otherwise; changes in a name come on top.
UniProt P32745: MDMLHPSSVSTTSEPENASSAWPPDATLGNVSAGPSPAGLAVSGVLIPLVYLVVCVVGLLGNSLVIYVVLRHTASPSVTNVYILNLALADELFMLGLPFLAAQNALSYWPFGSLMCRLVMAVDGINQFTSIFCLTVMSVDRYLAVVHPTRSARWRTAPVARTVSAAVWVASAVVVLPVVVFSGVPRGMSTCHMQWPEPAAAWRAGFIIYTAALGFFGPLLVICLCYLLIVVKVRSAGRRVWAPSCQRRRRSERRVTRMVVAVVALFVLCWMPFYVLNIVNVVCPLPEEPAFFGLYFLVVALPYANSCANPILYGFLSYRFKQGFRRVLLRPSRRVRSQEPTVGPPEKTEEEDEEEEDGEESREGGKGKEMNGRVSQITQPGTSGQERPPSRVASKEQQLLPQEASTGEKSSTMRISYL
UniProt P31391: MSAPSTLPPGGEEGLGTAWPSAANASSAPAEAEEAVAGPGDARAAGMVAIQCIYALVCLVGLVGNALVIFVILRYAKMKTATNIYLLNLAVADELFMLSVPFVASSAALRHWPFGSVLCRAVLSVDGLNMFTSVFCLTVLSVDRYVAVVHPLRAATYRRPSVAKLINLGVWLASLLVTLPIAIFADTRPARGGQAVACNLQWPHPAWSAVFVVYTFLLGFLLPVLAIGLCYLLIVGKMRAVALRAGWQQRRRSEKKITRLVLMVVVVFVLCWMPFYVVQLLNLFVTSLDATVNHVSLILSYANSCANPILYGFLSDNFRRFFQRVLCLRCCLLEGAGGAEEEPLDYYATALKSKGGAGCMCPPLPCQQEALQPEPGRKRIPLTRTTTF
UniProt P30874: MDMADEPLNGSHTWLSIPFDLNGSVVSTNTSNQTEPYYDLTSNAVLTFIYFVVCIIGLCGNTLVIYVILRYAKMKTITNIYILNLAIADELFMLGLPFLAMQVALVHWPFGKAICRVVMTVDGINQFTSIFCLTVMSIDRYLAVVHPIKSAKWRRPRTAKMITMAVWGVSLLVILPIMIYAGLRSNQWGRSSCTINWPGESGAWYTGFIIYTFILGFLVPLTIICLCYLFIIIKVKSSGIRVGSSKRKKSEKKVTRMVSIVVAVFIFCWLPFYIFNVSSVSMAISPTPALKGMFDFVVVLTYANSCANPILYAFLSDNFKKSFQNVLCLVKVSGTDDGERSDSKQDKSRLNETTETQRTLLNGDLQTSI
UniProt P35346: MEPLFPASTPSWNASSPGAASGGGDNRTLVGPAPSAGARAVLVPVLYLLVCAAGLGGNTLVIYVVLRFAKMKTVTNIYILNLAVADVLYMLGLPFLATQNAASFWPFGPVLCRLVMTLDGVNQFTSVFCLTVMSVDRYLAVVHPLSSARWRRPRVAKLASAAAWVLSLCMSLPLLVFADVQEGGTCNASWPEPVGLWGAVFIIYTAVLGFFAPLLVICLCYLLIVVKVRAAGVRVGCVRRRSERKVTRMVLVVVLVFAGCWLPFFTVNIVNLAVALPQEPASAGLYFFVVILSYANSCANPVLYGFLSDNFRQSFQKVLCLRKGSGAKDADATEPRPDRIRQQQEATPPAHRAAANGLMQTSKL

Tests used:
[1] = tested on: AR42J rat pancreatic tumor cells or NCI-H69 human small cell lung cancer; assay: radiotherapy test in tumor-bearing nude mice; assay type: in vivo; details: single application
hSST-3 = hSST-3 (Homo sapiens, UniProt P32745); assay: competition binding assay, membranes of CHO cells expressing hSST-3, [125I-Tyr3]-octreotide; details: competition with [125I-Tyr3]-octreotide; read-out: IC50 (nM) hSSTR-3
Method: (§1) The binding assays may be carried out as disclosed hereunder using membranes prepared from hSST-1, hSST-2, hSST-3, hSST-4 or hSST-5 selective cell lines, e.g. CHO cells stably expressing hSST-1, hSST-2, hSST-3, hSST-4 or hSST-5.
(§2) Brain or pituitary tissue is used in which hSST are visualized with e.g. in situ hybridization and/or receptor autoradiography. Membranes are prepared according to known methods, e.g. as disclosed by J C. Reubi et al. in J. Clin. Endocrinol. Metab. 1987, 65, 1127-1137. Membranes prepared from hSST selective cell lines, e.g. CHO cells stably expressing hSST-1 or hSST-2 or hSST-3 or hSST-4 or hSST-5 are incubated in triplicate in a total volume of 300 μl at 22° C. for 30 min with increasing concentrations of [^125 I-Tyr^3 ]-octreotide in 10 mmol/l Hepes buffer (pH 7.6) containing 0.5% BSA. The incubation is terminated by rapid filtration through Whatman GF/B glass fiber filters, which are then washed four times each with 5 ml ice cold 10 mmol/l Tris/150 mmol/l NaCl. The filters are counted in a LKB counter at 78% counting efficiency. Specific binding is total binding minus non-specific binding in the presence of 1 μmol/l somatostatin-14. The experiments are carried out in triplicate. The affinity constant (KD) and number of binding sites are calculated from Scatchard plots of the data. […]

hSST-4 = hSST-4 (Homo sapiens, UniProt P31391); assay: competition binding assay, membranes of CHO cells expressing hSST-4, [125I-Tyr3]-octreotide; details: competition with [125I-Tyr3]-octreotide; read-out: IC50 (nM) hSSTR-4
hSST-2 = hSST-2 (Homo sapiens, UniProt P30874); assay: competition binding assay, membranes of CHO cells expressing hSST-2, [125I-Tyr3]-octreotide; details: competition with [125I-Tyr3]-octreotide; read-out: IC50 (nM) hSSTR-2
Method: as §1, §2

hSST-5 = hSST-5 (Homo sapiens, UniProt P35346); assay: competition binding assay, membranes of CHO cells expressing hSST-5, [125I-Tyr3]-octreotide; details: competition with [125I-Tyr3]-octreotide; read-out: IC50 (nM) hSSTR-5
Method: as §1, §2

SMILES | transient tumor shrinkage, % of initial ([1]; after one week) | tumor growth delay [1] | IC50 (hSST-3) [nM] | IC50 (hSST-4) [nM] | IC50 (hSST-2) [nM] | IC50 (hSST-5) [nM]
NCCCC[C@@H]1NC(=O)[C@@H](Cc2c[nH]c3ccccc23)NC(=O)[C@H](Cc2ccccc2)NC(=O)[C@@H]2C[C@@H](OC(=O)NCCNC(=O)CN3CCN(CC(=O)O)CCN(CC(=O)O)CCN(CC(=O)O)CC3)CN2C(=O)[C@H](Cc2ccccc2)NC(=O)[C@H](COCc2ccccc2)NC1=O [Example 48, Cyclo-[4-(DOTA-NH--C2 H4 --NH--CO--O)Pro-Phe-DTrp-Lys-Ser(Bzl)-Phe]] (cyclo(F[Hyp]([CO-Ethylenediamine-DOTA])F[dW]KS(Bn))) | 50 % of initial | two |  |  |  | 
NCCCC[C@@H]1NC(=O)[C@@H](Cc2c[nH]c3ccccc23)NC(=O)[C@H](c2ccccc2)NC(=O)[C@@H]2C[C@@H](OC(=O)NCCN)CN2C(=O)[C@H](Cc2ccccc2)NC(=O)[C@H](Cc2ccc(OCc3ccccc3)cc2)NC1=O [Example 14] (cyclo([Hyp]([CO-Ethylenediamine])[Phg][dW]KY(Bn)F)) |  |  | 0.86 | > 100 | 1.2 | 0.13
